Reference: patent US20180022780A1 (priority 2014, published 2018)

Assay: general procedure: Fmoc solid-phase peptide synthesis; NovaSyn TGR R resin (Novabiochem); Oxyma/DIC (HOBt/DIC for manual couplings)
Conditions: whole synthesis; for final HPLC purity: analytical RP-HPLC, 220 nm, two column systems; for isolated yield: of theory
[1] = scale of the general procedure 15 μmol, side-chain lactam ring
[2] = scale 15 μmol, side-chain lactam ring
[3] = scale of the general procedure 15 μmol

Row | Substance | final HPLC purity [1] | isolated yield [1] [%] | isolated mass [2] [mg] | final HPLC purity [3] | isolated yield [3] [%] | isolated mass (scale 15 μmol) [mg] | isolated yield [2] [%] | isolated mass (scale 15 μmol, acetate salt, side-chain lactam ring) [mg]
1 | H-K(PAM)GE + RFGTK + TVQKLAHQIYQFTDKDKDNVAPRSK-(N-Me)I-SPQGY-NH2 | ≧90% | 0.9 | 0.6 |  |  |  |  | 
2 | PAM-GGC*RFGTU*TVQKLAHQIYQFTDKDKDNVAPRSKISPQGY-NH2 |  |  |  | ≧95% | 2.9 | 2.0 |  | 
3 | H-GGD + RFGTDpr + TVQKLAHQIYQFTDKDKDNVAPRSKISPQGY-NH2 | ≧90% | 5.8 | 3.8 |  |  |  |  | 
4 | H-GGDpr + RFGTE + TVQKLAHQIYQFTDKDKDNVAPRSKISPQGY-NH2 | ≧95% | 2.7 | 1.8 |  |  |  |  | 
5 | H-GGDab + RFGTE + TVQKLAHQIYQFTDKDKDNVAPRSKISPQGY-NH2 | ≧95% | 2.3 | 1.5 |  |  |  |  | 
6 | H-K(PAM)GDpr + RFGTE + TVQKLAHQIYQFTDKDKDNVAPRS-(N-Me)K-ISPQGY-NH2 | ≧95% | 0.9 | 0.6 |  |  |  |  | 
7 | H-GGU*RFGTC*TVQKLAHQIYQFTDKDKDNVAPRSKISPQGY-NH2 |  |  |  |  | 3.4 | 2.2 |  | 
8 | H-K(PAM)GE + RFGTK + TVQKLAHQIYQFTDKDKDNVAPRSKISPQGY-NH2 | ≧95% | 7.6 | 5.3 |  |  |  |  | 
9 | H-GGDpr + RFGTD + TVQKLAHQIYQFTDKDKDNVAPRSKISPQGY-NH2 | ≧95% | 2.9 | 1.9 |  |  |  |  | 
10 | H-GGOrn + RFGTE + TVQKLAHQIYQFTDKDKDNVAPRSKISPQGY-NH2 | ≧95% | 2.6 | 1.7 |  |  |  |  | 
11 | H-GGC*RFGTU*TVQKLAHQIYQFTDKDKDNVAPRSKISPQGY-NH2 |  |  |  | ≧90% | 2.5 | 1.6 |  | 
12 | H-GGE + RFGTK + TVQKLAHQIYQFTDKDKDNVAPRSKISPQGY-NH2 | ≧90% |  | 6.0 |  |  |  | 9.0 | 
13 | PEPTIDE1{G.G.K.R.F.G.T.D.T.V.Q.K.L.A.H.Q.I.Y.Q.F.T.D.K.D.K.D.N.V.A.P.R.S.K.I.S.P.Q.G.Y.[am]}$PEPTIDE1,PEPTIDE1,3:R3-8:R3$$$V2.0 |  |  |  | ≧95% | 0.5 | 0.3 |  | 
14 | PEPTIDE1{G.G.[U-CH2CH2].R.F.G.T.[U-CH2CH2].T.V.Q.K.L.A.H.Q.I.Y.Q.F.T.D.K.D.K.D.N.V.A.P.R.S.K.I.S.P.Q.G.Y.[am]}$PEPTIDE1,PEPTIDE1,3:R3-8:R3$$$V2.0 |  |  |  | ≧95% | 4.0 | 2.6 |  | 
15 | PAM-KGC*RFGTU*TVQKLAHQIYQFTDKDKDNVAPRSKISPQGY-NH2 |  |  |  | ≧95% | 1.9 | 1.3 |  | 
16 | H-GGD + RFGTK + TVQKLAHQIYQFTDKDKDNVAPRSKISPQGY-NH2 | ≧95% | 1.2 | 0.8 |  |  |  |  | 
17 | H-GGE + RFGTDpr + TVQKLAHQIYQFTDKDKDNVAPRSKISPQGY-NH2 | ≧95% | 1.7 | 1.2 |  |  |  |  | 
18 | H-K(PAM)GC*RFGTU*TVQKLAHQIYQFTDKDKDNVAPRSKISPQGY-NH2 |  |  |  | ≧95% | 2.9 | 2.0 |  | 
19 | K(PAM)GDpr + RFGTE + TVQKLAHQIYQFTDKDKDNVAPRSKISPQGY-NH2 | ≧95% | 3.4 |  |  |  |  |  | 2.4
20 | PEPTIDE1{G.G.[Orn].R.F.G.T.D.T.V.Q.K.L.A.H.Q.I.Y.Q.F.T.D.K.D.K.D.N.V.A.P.R.S.K.I.S.P.Q.G.Y.[am]}$PEPTIDE1,PEPTIDE1,3:R3-8:R3$$$V2.0 |  |  |  | ≧95% | 12.1 | 7.9 |  | 
21 | H-K(PAM)GK + RFGTE + TVQKLAHQIYQFTDKDKDNVAPRSKISPQGY-NH2 | ≧95% | 5.0 | 3.5 |  |  |  |  | 
22 | H-GGDab + RFGTD + TVQKLAHQIYQFTDKDKDNVAPRSKISPQGY-NH2 | ≧90% | 1.9 | 1.4 |  |  |  |  | 
23 | H-GGD + RFGTDab + TVQKLAHQIYQFTDKDKDNVAPRSKISPQGY-NH2 | ≧95% | 2.6 | 1.8 |  |  |  |  | 
24 | H-GGD + RFGTOrn + TVQKLAHQIYQFTDKDKDNVAPRSKISPQGY-NH2 | ≧95% | 3.7 | 2.4 |  |  |  |  | 
25 | H-GGE + RFGTOrn + TVQKLAHQIYQFTDKDKDNVAPRSKISPQGY-NH2 | ≧95% | 2.4 | 1.6 |  |  |  |  | 
26 | PEPTIDE1{G.G.K.R.F.G.T.E.T.V.Q.K.L.A.H.Q.I.Y.Q.F.T.D.K.D.K.D.N.V.A.P.R.S.K.I.S.P.Q.G.Y.[am]}$PEPTIDE1,PEPTIDE1,3:R3-8:R3$$$V2.0 |  |  |  | ≧90% | 5.8 | 3.8 |  | 
27 | H-GGE + RFGTDab + TVQKLAHQIYQFTDKDKDNVAPRSKISPQGY-NH2 | ≧95% | 3.0 | 1.9 |  |  |  |  | 

HELM strings list residues between dots; [ac] is acetyl, [am] amide, other brackets name non-standard units.
